Test results published in PubChem BioAssay AID662 (National Center for Advancing Translational Sciences (NCATS), 2007).
The list shows a part of the results. Shown are side measurements of this screen, not its main read-out; they come without a call. Most of these compounds were active or inconclusive in the main read-out, so they are no random draw. Words in brackets tell the shape of the fitted curve; partial curves, single points and poor fits give uncertain potencies.

Experiment: Cell signaling CRE-BLA (Fsk stim)
Conditions: CHO CRE-bla reporter (cAMP response element driving beta-lactamase), forskolin EC10, beta-lactamase ratio; measured here: 460 nm blue channel
How it was run: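 AC50 values, positive or negative, reflect shifts in EC10 NKH 477-induced CRE-bla reporter activity in CHO cells. Incubation lasted 3 h at 37 °C before CCF4 substrate (2 h, room temperature) and ratiometric 460/530 nm reading.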
With `CS(=O)(=O)Nc1cccc(-c2ccc3ncnc(NCCN4CCOCC4)c3c2)c1` the AC50 was 7.94 µM [rising, partial curve].
For `O=C(OCC(=O)N1CCN(c2ccccc2)CC1)C1=COCCO1`, the AC50 was 5.01 µM [falling, single point].
In the case of `Nc1ccc2c3c(cccc13)C(=O)NC2=O`, the AC50 is reported as 25.1 µM [rising, partial curve].
For `CCOn1c(=O)c(=O)n(OCc2ccccc2)c2ccccc21`, the AC50 was 0.251 µM [rising, partial curve].
For `COc1ccc(-c2nc3cnc(N4CCN(C)CC4)nc3n(-c3ccc(OC)cc3)c2=O)cc1`, the AC50 was 12.6 µM [rising, partial curve].
In the case of `N#CCSc1nnc2sc3ccccc3n12`, the AC50 is reported as 15.8 µM [rising, single point].
With `COc1ccc(CNC(=O)C(c2cccs2)N(C(=O)c2csnn2)C2CC2)cc1` (centres undefined) the AC50 was 10 µM [falling, partial curve].
In the case of `O=C(O)CC(c1ccccc1)n1cccc1` (centres undefined), the AC50 is reported as 5.01 µM [rising, single point].
With `Cc1cc(C)c2c(N)c(C(=O)N3CCN(c4ncccn4)CC3)sc2n1` the AC50 was 12.6 µM [rising, partial curve].
For `Cc1ccc(C2Nc3ccccc3-c3nc4ccccc4n32)o1` (centres undefined), the AC50 was 20 µM [rising, single point].
With `CCC(C)Sc1nc(O)cc(=O)[nH]1` (centres undefined) the AC50 was 0.00316 µM [falling, full curve, poor fit].
In the case of `CCN1CCN(CC(=O)Nc2c(C(=O)OC)[nH]c3cccc(Cl)c23)CC1`, the AC50 is reported as 3.16 µM [falling, full curve, poor fit].
For `O=C(O)C1CC(=O)N(c2ccc(F)c(F)c2)C1` (centres undefined), the AC50 was 0.00398 µM [falling, full curve, poor fit].
In the case of `CCN=C1SC(CC(=O)Nc2sc(C)c(C)c2C(=O)OC)C(=O)N1CC` (centres undefined), the AC50 is reported as 2.51 µM [rising, partial curve].
In the case of `Cc1cc(O)c2c(c1)C(=O)c1cc(O)cc(O)c1C2=O`, the AC50 is reported as 1.26 µM [rising, full curve, poor fit].
In the case of `COC(=O)C1CCN(c2cc(=O)n(C3CCCCC3)c(=O)[nH]2)CC1`, the AC50 is reported as 0.251 µM [rising, partial curve].
For `Cc1cc(C)n(-c2ccc(C(=O)OCC(=O)Nc3ccc(S(=O)(=O)N4CCOCC4)cc3)cc2)n1`, the AC50 was 20 µM [falling, single point].
For `CCCCn1c(=O)c2c(c3ccccc31)OCC(=O)N2`, the AC50 was 1.26 µM [rising, partial curve].
In the case of `CCOC(=O)CCCSc1nc2sc(C)c(C)c2c(=O)[nH]1`, the AC50 is reported as 10 µM [rising, partial curve].
For `Cc1ccc(SCc2nc(-c3cccnc3)no2)cc1`, the AC50 was 12.6 µM [rising, partial curve].
In the case of `Cc1cc(NC(=O)CSc2nc(-c3ccco3)cc(C(F)(F)F)n2)n(-c2ccccc2)n1`, the AC50 is reported as 7.94 µM [rising, partial curve].
With `COc1ccc(CCC(=O)Nc2ccc(-c3noc(-c4ccc(OC)c(OC)c4)n3)cc2)cc1` the AC50 was 7.94 µM [falling, partial curve].
In the case of `N#Cc1cc2ccccc2nc1SCc1ccccn1`, the AC50 is reported as 12.6 µM [rising, single point].
With `CCOC(=O)c1sc(=S)n(CC)c1N` the AC50 was 12.6 µM [rising, partial curve].
With `O=C(CN1CCC2(CC1)OCCO2)c1ccc2cc[nH]c2c1` the AC50 was 1.26 µM [rising, full curve, poor fit].
In the case of `C=CCn1c(SCc2c(C)noc2C)nc2sc3c(c2c1=O)CCCCC3`, the AC50 is reported as 2.51 µM [rising, full curve].
With `CCc1cc2c(NCCN3CCCCC3)ncnc2s1` the AC50 was 0.126 µM [falling, single point].
In the case of `CCOC(=O)N1CCN(c2nc(C)cc(C(F)(F)F)n2)CC1`, the AC50 is reported as 0.0794 µM [falling, full curve].
For `Cn1c(=O)c(-c2ccccc2)nc2cnc(Nc3ccccc3)nc21`, the AC50 was 5.01 µM [rising, partial curve].
For `CC(=O)Oc1ccc(C(=O)Nc2nccs2)cc1`, the AC50 was 31.6 µM [falling, single point].
With `C=CC1=C(C)C2=NC1=CC1=NC(=CC3=NC(=CC4=NC(=C2)C(C)=C4CCC(=O)O)C(CCC(=O)O)=C3C)C(C=C)=C1C.[Zn]` the AC50 was 25.1 µM [falling, partial curve].
With `Nn1c(SC/C=C/c2ccccc2)nnc1-c1ccncc1` the AC50 was 1 µM [rising, single point].
With `CC(=O)c1cc2c(cc1NC(=O)CCCC(=O)O)OCO2` the AC50 was 0.0316 µM [falling, full curve, poor fit].
For `CN(C)C(=O)c1ccc(-c2ccc3ncnc(N(C)C)c3c2)cc1`, the AC50 was 12.6 µM [rising, partial curve].
For `Cc1cccc(NS(=O)(=O)c2ccccc2)n1`, the AC50 was 3.16 µM [rising, partial curve].
In the case of `CCOC(=O)c1c(CN2CCCCC2)n(C)c2cc(Br)c(OC)cc12`, the AC50 is reported as 10 µM [rising, partial curve].
With `O=C(O)c1oc2ccc(Br)cc2c1-n1cccc1` the AC50 was 3.16 µM [falling, full curve, poor fit].
In the case of `CCOC(=O)N1CCN(C(=O)c2cc(-c3ccc(OCC)cc3)nc3ccccc23)CC1`, the AC50 is reported as 12.6 µM [rising, single point].
In the case of `Nc1ccc2oc(-c3cccc4ccccc34)nc2c1`, the AC50 is reported as 10 µM [rising, single point].
In the case of `CC(C)(C)c1ccc(-c2nc(C#N)c(NCc3ccncc3)o2)cc1`, the AC50 is reported as 12.6 µM [rising, partial curve].
For `COc1ccc(Oc2ncc3nc(-c4ccc(F)cc4)c(=O)n(Cc4cccs4)c3n2)cc1`, the AC50 was 15.8 µM [rising, partial curve].
For `COc1cc(C(=O)N2CCN=C2c2ccccc2)cc(OC)c1OC`, the AC50 was 12.6 µM [rising, single point].
In the case of `O=C1C(SCCO)=C(SCCO)C(=O)c2ccccc21`, the AC50 is reported as 5.01 µM [falling, full curve].
For `O=C(CN(c1ccccc1F)S(=O)(=O)c1ccccc1)N1CCCCCC1`, the AC50 was 0.0126 µM [rising, full curve].
